Data published in PubChem BioAssay AID720540 (National Center for Advancing Translational Sciences (NCATS), 2013).
The campaign covered roughly 1,300 compounds. About 460 (35%) were called active. This list was built around the results that the source calls inconclusive (neither active nor inactive); the mix of calls is not that of the screen. Calls come from the whole dose curve; as a rule, active = well fitted inhibition curve with a large enough effect; inconclusive = small, poorly fitted or top-dose-only effect; inactive = flat fitted curve, though single readings scatter. Where the call is inconclusive, the potency comes from a doubtful curve fit.

Sequences of proteins named here, by UniProt entry; tags and fusion partners are left off. A change or cut given only in a name is not applied to a line headed by its entry.
UniProt O00167: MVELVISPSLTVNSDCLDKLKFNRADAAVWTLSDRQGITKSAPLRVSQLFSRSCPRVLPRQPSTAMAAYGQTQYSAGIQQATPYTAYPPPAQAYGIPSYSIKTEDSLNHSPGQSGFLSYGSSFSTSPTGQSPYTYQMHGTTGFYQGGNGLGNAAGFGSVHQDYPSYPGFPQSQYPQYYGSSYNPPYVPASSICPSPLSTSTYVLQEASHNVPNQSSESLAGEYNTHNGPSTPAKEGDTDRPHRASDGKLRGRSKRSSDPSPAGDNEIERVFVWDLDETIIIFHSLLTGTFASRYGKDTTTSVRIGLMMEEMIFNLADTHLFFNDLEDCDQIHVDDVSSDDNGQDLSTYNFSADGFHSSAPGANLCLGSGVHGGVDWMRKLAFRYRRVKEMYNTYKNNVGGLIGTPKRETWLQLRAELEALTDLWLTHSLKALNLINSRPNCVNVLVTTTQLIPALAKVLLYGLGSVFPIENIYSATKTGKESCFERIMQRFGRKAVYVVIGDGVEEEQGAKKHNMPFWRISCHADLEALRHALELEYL

molecular target: Protein phosphatase EYA2 (Homo sapiens) (UniProt O00167); experiment: qHTS for Inhibitors of the Phosphatase Activity of Eya2: Confirmatory Assay for Cherry-picked Compounds; settings: purified EYA2 phosphatase activity, qHTS confirmation; series mostly up to 46.1 µM; note: nearly all actives have a fitted effect of over 65% in size
Procedure, shortened: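 Eya2 (0.2 uM working solution) preincubated 10 min at room temperature with compound in pH 7.5 HEPES buffer with MgCl2, BSA, DTT. OMFP added (50 uM working solution), 10 min more; fluorescence 485/525 nm, normalized to EGTA and DMSO.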
Potency is the fitted concentration of half-maximal effect.

SMILES | Potency
COC(=O)c1c(C)[nH]c(C(=O)C(C)OC(=O)C2CC(=O)N(c3ccc(C)cc3)C2)c1C (configuration not stated) | inactive
Cc1ccc(NC(=O)c2cc(=O)c3ccccc3o2)cc1S(=O)(=O)N1CCCCC1 | active: 12 µM
Cn1nc(C(=O)Nc2ccc(Cl)c(S(=O)(=O)N3CCOCC3)c2)c2ccccc2c1=O | inconclusive: 21.3 µM [inhibitor, single point]
COc1ccc(-n2cc3c(-c4cccc(Br)c4)nnc(C)c3n2)cc1 | inconclusive: 16.9 µM [inhibitor, partial curve]
Cn1c(N)c(C(=O)CSc2nnc(NC3CCCCC3)s2)c(=O)n(C)c1=O | inactive
Cc1ccc(-c2nnc(Nc3ccc4c(c3)OCO4)c3ccccc23)cc1S(N)(=O)=O | inconclusive: 19 µM [inhibitor, single point]
O=C(O)c1ccccc1-c1ccccc1C(=O)Nc1ccc2oc(=O)c3ccccc3c2c1 | active: 8.49 µM
CN(C)C(C)(C)C#CC(O)(c1ccccc1)c1ccccc1 | inactive
Cc1cc(NC(=O)c2ccccc2F)ncc1NC(=O)c1cccs1 | inconclusive: 19 µM [inhibitor, partial curve]
COc1ccc(NC(=O)CSc2ccc(-c3ccccn3)nn2)cc1OC | active: 3.79 µM
Nc1nonc1C(=O)N/N=C/c1ccc(-c2cccc([N+](=O)[O-])c2)o1 | inconclusive: 9.53 µM [inhibitor, partial curve]
O=C(CSc1ccc2nnc(-c3ccccn3)n2n1)Nc1ccccc1 | active: 16.9 µM
C[C@@]12CCC=C[C@H]1[C@H](c1ccc3ccccc3c1/C=C/c1ccccc1)N(Cc1ccccc1)C2=O | inactive
CC(C)n1ncc2c(C(=O)N3CCN(Cc4ccc(Br)s4)CC3)cc(C3CC3)nc21 | inconclusive: 15.1 µM [inhibitor, partial curve]
CC(=O)c1ccc(OC(=O)/C=C/c2ccccc2)cc1 | active: 4.26 µM
O=C(/C=C/c1ccc(O)c(O)c1)OC(Cc1ccc(O)c(O)c1)C(=O)O (configuration not stated) | inconclusive: 4.78 µM [inhibitor, full curve]
CCCCc1cc(=O)oc2cc(OCC(=O)N3CCC(C(=O)O)(c4ccccc4)CC3)ccc12 | inconclusive: 16.9 µM [inhibitor, single point]
c1ccc(COc2cccc(CNCc3ccccn3)c2)cc1 | inconclusive: 15.1 µM [inhibitor, partial curve]
COc1cc(/C=N/N2CCN(Cc3ccc(Cl)cc3)CC2)ccc1OC(C)=O | inconclusive: 19 µM [inhibitor, partial curve]
CCOc1ccc(N=c2cc(-c3ccc(OC)cc3)oc3ccccc23)cc1 | inconclusive: 15.1 µM [inhibitor, partial curve]
COc1ccc(Nc2cc(C(=O)N3CCc4ccccc4C3)c3ccccc3n2)c(OC)c1 | inconclusive: 16.9 µM [inhibitor, partial curve]
CCC(=O)N1c2ccc(S(=O)(=O)N3CCN(c4ccc([N+](=O)[O-])cc4)CC3)cc2CC1C (configuration not stated) | inactive
Cc1ccc(-n2[nH]c(C)c(C=Nc3ccc(S(=O)(=O)Nc4nccs4)cc3)c2=O)cc1C | active: 8.49 µM
CCSc1nc2ccccc2n1C(=O)c1ccc(S(=O)(=O)N2CCCCC2)cc1 | inactive

Retrieved by compound from the list above:
SMILES | Potency
Cn1nc(C(=O)Nc2ccc(Cl)c(S(=O)(=O)N3CCOCC3)c2)c2ccccc2c1=O | inconclusive: 21.3 µM [inhibitor, single point]
CCOc1ccc(N=c2cc(-c3ccc(OC)cc3)oc3ccccc23)cc1 | inconclusive: 15.1 µM [inhibitor, partial curve]
CCC(=O)N1c2ccc(S(=O)(=O)N3CCN(c4ccc([N+](=O)[O-])cc4)CC3)cc2CC1C (configuration not stated) | inactive

Next part

SMILES | Potency
O=c1oc(-c2ccco2)nc2ccccc12 | active: 19 µM
Cc1cc(=O)n2[nH]c(Nc3cccc(Cl)c3)nc2n1 | inactive
Cc1cccc(S(=O)(=O)C(C#N)c2nc3ccccc3nc2N2CCOCC2)c1 (configuration not stated) | inactive
CC1=C(C(=O)N2CCOCC2)CC(CC(=O)NC(c2ccccc2)c2ccccc2)C(=O)N1Cc1ccc(C(C)(C)C)cc1 (configuration not stated) | inactive
Cc1cc(=O)n2nc(N3CCCC(C(=O)Nc4ccc(C)c(C)c4)C3)sc2n1 (configuration not stated) | inactive
COC(=O)c1ccc(OC(=O)c2cccnc2)cc1 | inconclusive: 19 µM [inhibitor, partial curve]
COCCNC(=O)c1cccc(OC2CCN(Cc3ccc(F)cc3OC)CC2)c1 | inactive
CN(C)c1ccc(Sc2ccc3nc(N)nc(N)c3c2)cc1 | active: 6.75 µM
CC(C)Cn1c(SC(C)C(=O)Nc2ccc(N3CCOCC3)cc2)nc2ccccc21 (configuration not stated) | inconclusive: 19 µM [inhibitor, partial curve]
COc1ccc(/C=C2\SC(=S)N(CC3CCCO3)C2=O)cc1 (configuration not stated) | inconclusive: 15.1 µM [inhibitor, partial curve]
COc1ccc(-c2csc(Nc3ccc(S(N)(=O)=O)cc3)n2)cc1OC | inconclusive: 19 µM [inhibitor, partial curve]
O=C1N=c2ccccc2=C1c1[nH]c(=S)[nH]c1O | inconclusive: 5.36 µM [inhibitor, full curve, poor fit]
CNC(=O)c1ccc(Nc2nnc(-c3ccc(C(N)=O)cc3)c3ccccc23)cc1 | active: 4.78 µM
O=c1c2ccccc2c(C=Nc2cccc(S(=O)(=O)NC3=NCCCCC3)c2)c(O)n1Cc1ccccc1 | inactive
O=C(NCCOc1ccccc1)c1ncn[nH]1 | inconclusive: 21.3 µM [inhibitor, single point]
Cn1cccc1/C=N/N1CCN(Cc2ccccc2Cl)CC1 | inconclusive: 13.5 µM [inhibitor, partial curve]
Cn1c(O)c(C2=c3ccccc3=NC2=O)[nH]c1=S | inconclusive: 0.757 µM [inhibitor, full curve]
CCc1nc2ccc(C(=O)NCCOc3ccc(OC)cc3)cn2c1N(CCC(C)C)CCN(C)C | inactive
Oc1c(C(Nc2nc3ccccc3s2)c2ccco2)ccc2cccnc12 (configuration not stated) | active: 9.53 µM
COc1cc(NC(=O)c2ccc(S(=O)(=O)N(C)c3ccccc3)cc2)cc(OC)c1 | inactive
Cc1cc(C)cc(C(=O)NC(=S)Nc2ccc3c(c2)OCCO3)c1 | inconclusive: 16.9 µM [inhibitor, partial curve]
Cc1cc(Br)c(NC(=O)c2ccccc2[N+](=O)[O-])cc1C | inactive
COc1ccc(CCn2c(C3CCCCC3)nc3c(c(=O)c4ccccc4n3C)c2=O)cc1 | inconclusive: 19 µM [inhibitor, partial curve]
